Data from the primary screen of doi:10.1371/journal.pone.0140310, rounded.

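The test systems are human melanoma cell lines, treated with a pair of drugs for 72 h and then stained and imaged. Values are the share of nuclei positive for cleaved PARP as a percentage of the same share in the DMSO control: 100 is the control level, higher means more apoptosis. Concentrations were fixed for each drug; these are the higher of two levels. No replicate spread is given; individual values may be noisy. The marker varies much from line to line, for technical or biological reasons.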
This is part of the screen, not chosen by result.
A dash means that no value is listed here.

All values are for the listed drug together with gemcitabine (0.002 µM): Nc1ccn([C@@H]2O[C@H](CO)[C@@H](O)C2(F)F)c(=O)n1

Partner | MEL-HO | WM3526 | IST-MEL1 | A375 | WM1716 | MeWo | IPC-298 | A2058 | RPMI-7951 | G-361 | 501mel | RVH-421 | LOX IMVI | UACC-62 | UACC-257
COc1cc([C@@H]2c3cc4c(cc3[C@@H](O[C@@H]3O[C@@H]5CO[C@@H](C)O[C@H]5[C@H](O)[C@H]3O)[C@H]3COC(=O)[C@H]23)OCO4)cc(OC)c1O at 0.1 µM | 117 | 122 | 626 | 227 | 151 | 184 | 1030 | 318 | 197 | 320 | - | 214 | 103 | 183 | 81.6
COC(=O)c1sccc1S(=O)(=O)Nc1ccc(Nc2ccccc2)cc1OC at 5 µM | 52.4 | 78.4 | 382 | 83.1 | 138 | 231 | 182 | 113 | 60.3 | 28.3 | 115 | 58.9 | 173 | 123 | 57.3
Oc1cc(-c2nc(-c3ccccc3)[nH]c2-c2ccncc2)ccc1Cl at 1 µM | 204 | 201 | 75.6 | 75.3 | 266 | 109 | 82.2 | 95.1 | 241 | 215 | 85.1 | 115 | 225 | 410 | 23.8
CCc1ccc(CCOc2ccc(CC3SC(=O)NC3=O)cc2)nc1 (stereo not shown) at 10 µM | 134 | 94.3 | 135 | 120 | 241 | 267 | 195 | 123 | 112 | 380 | 45.8 | 223 | 389 | 113 | 31.1
COc1cc(Nc2ncc(F)c(Nc3ccc4c(n3)NC(=O)C(C)(C)O4)n2)cc(OC)c1OC at 2 µM | 105 | 142 | 632 | - | 57.6 | 85.9 | 181 | 131 | 282 | 234 | - | 50.4 | 265 | 136 | 74.7
COc1ccc(-c2ccc3c(N4CCOCC4)nc(N4C[C@@H](C)O[C@@H](C)C4)nc3n2)cc1CO at 0.1 µM | 72.5 | 158 | 107 | 149 | 133 | 388 | 424 | 196 | 68.6 | 467 | 111 | 182 | 200 | 215 | 32.7
NC1(c2ccc(-c3nc4ccn5c(=O)[nH]nc5c4cc3-c3ccccc3)cc2)CCC1 at 2 µM | 232 | 186 | 284 | 65.6 | 151 | 262 | 179 | 222 | 101 | 360 | - | 134 | 241 | 250 | 78.1
NC(=O)c1ccc(N(C(N)=O)c2c(F)cccc2F)nc1-c1ccc(F)cc1F at 2 µM | 241 | 38.2 | 172 | 83.3 | 128 | 370 | 390 | 276 | 406 | 233 | - | 91.1 | 60.3 | 79.9 | 35.5
Cn1c(=O)n(-c2ccc(C(C)(C)C#N)cc2)c2c3cc(-c4cnc5ccccc5c4)ccc3ncc21 at 0.02 µM | 191 | 130 | 242 | 120 | 152 | 143 | 154 | 306 | 177 | 312 | - | 77.6 | 190 | 413 | 65.4
Nc1ncn([C@H]2C[C@H](O)[C@@H](CO)O2)c(=O)n1 at 0.5 µM | 59.8 | 108 | 334 | 64.1 | 186 | 501 | 439 | 501 | 271 | 279 | - | 249 | 15.6 | 233 | 127
CC(C)C[C@H](NC(=O)[C@H](Cc1ccccc1)NC(=O)c1cnccn1)B(O)O at 0.005 µM | 375 | 3720 | 913 | 89.2 | 13700 | 3320 | 2210 | 1570 | 1030 | 10000 | - | 575 | 45.1 | 215 | 31.8
O=C(/C=C/c1cccnc1)NCCCCC1CCN(C(=O)c2ccccc2)CC1 at 0.05 µM | 124 | 103 | 258 | 80.0 | 85.5 | 120 | 555 | 173 | 322 | 8530 | - | 236 | 95.8 | 155 | 99.1
CC(C)CCN1c2nc(Nc3cc(F)c(O)c(F)c3)ncc2N(C)C(=O)C1C (stereo not shown) at 1 µM | 324 | 230 | 354 | 28.8 | 248 | 404 | 227 | 234 | 208 | 154 | 114 | 382 | 289 | 121 | 92.1
O=c1cc(-c2cccc3c2Sc2ccccc2S3)oc(N2CCOCC2)c1 at 5 µM | 53.0 | 73.5 | 415 | 26.1 | 117 | 182 | 88.7 | 124 | 144 | 228 | 73.5 | 158 | 107 | 75.3 | 26.9
CCCS(=O)(=O)Nc1ccc(F)c(C(=O)c2c[nH]c3ncc(Cl)cc23)c1F at 0.4 µM | 143 | 193 | 387 | 129 | 232 | 196 | 63.4 | 122 | 92.1 | 268 | - | 161 | 91.5 | 423 | 36.7
CC[C@]1(O)C[C@H]2CN(CCc3c([nH]c4ccccc34)[C@@](C(=O)OC)(c3cc4c(cc3OC)N(C=O)[C@H]3[C@@](O)(C(=O)OC)[C@H](OC(C)=O)[C@]5(CC)C=CCN6CC[C@]43[C@@H]65)C2)C1 at 0.0005 µM | 280 | 520 | 307 | 93.1 | 113 | 213 | 242 | 214 | 182 | 275 | - | 262 | 80.9 | 242 | 105
CN(NC(=O)CC(=O)NN(C)C(=S)c1ccccc1)C(=S)c1ccccc1 at 0.03 µM | 111 | 81.2 | 289 | - | 335 | 2030 | 378 | 1640 | 124 | 886 | - | 63.4 | 262 | 115 | 58.1
O=C(Nc1cccc(Cl)c1)Nc1ncc(CCNc2ncnc3ccsc23)s1 at 0.004 µM | 79.6 | 98.5 | 248 | - | 140 | 245 | 342 | 220 | 105 | 336 | - | 63.3 | 37.6 | 125 | 148
CO[C@H]1C[C@@H]2CC[C@@H](C)[C@@](O)(O2)C(=O)C(=O)N2CCCC[C@H]2C(=O)O[C@H]([C@H](C)C[C@@H]2CC[C@@H](OCCO)[C@H](OC)C2)CC(=O)[C@H](C)/C=C(\C)[C@@H](O)[C@@H](OC)C(=O)[C@H](C)C[C@H](C)/C=C/C=C/C=C/1C at 0.1 µM | 162 | 193 | 275 | 59.2 | 123 | 153 | 368 | 223 | 138 | 587 | - | 197 | 441 | 238 | 95.4
Clc1ccc(Nc2nnc(Cc3ccncc3)c3ccccc23)cc1 at 10 µM | 195 | 130 | 293 | 49.4 | 245 | 170 | 145 | 177 | 94.3 | 251 | - | 98.2 | 117 | 191 | 90.1
C#Cc1cccc(Nc2ncnc3cc(OCCOC)c(OCCOC)cc23)c1 at 4 µM | 80.9 | 154 | 160 | 74.9 | 262 | 181 | 616 | 265 | 182 | 195 | - | 145 | 117 | 150 | 37.2
COc1cc(N2CCC(N3CCN(C)CC3)CC2)ccc1Nc1ncc(Cl)c(Nc2ccccc2S(=O)(=O)C(C)C)n1 at 0.4 µM | 130 | 102 | 409 | 65.0 | 280 | 537 | 516 | 528 | 170 | 180 | 143 | 169 | 69.0 | 364 | 25.7
O=C(CCCCCCC(=O)Nc1ccccc1)NO at 0.4 µM | 110 | 121 | 102 | - | 160 | 183 | 40.2 | 70.0 | 375 | 112 | - | 209 | 124 | 160 | 86.2
Cn1cc(C2=C(c3cn(C4CCN(Cc5ccccn5)CC4)c4ccccc34)C(=O)NC2=O)c2ccccc21 at 4 µM | 143 | 62.9 | 83.2 | 110 | 122 | 116 | 206 | 128 | 172 | 134 | - | 41.3 | 36.2 | 234 | 27.0
C/C(O)=C(\C#N)C(=O)Nc1cc(Br)ccc1Br at 10 µM | 397 | 72.1 | 197 | 113 | 117 | 485 | 244 | 86.4 | 133 | 182 | 88.0 | 164 | 185 | 78.8 | 64.0
CC(=O)c1c(C)c2cnc(Nc3ccc(N4CCNCC4)cn3)nc2n(C2CCCC2)c1=O at 0.2 µM | 251 | 44.1 | 110 | 76.7 | 63.6 | 148 | 288 | 149 | 117 | 176 | - | 70.4 | 115 | 99.5 | 31.3
CCCCCCCCCCCCCCCCCCOP(=O)([O-])OC1CC[N+](C)(C)CC1 at 2 µM | 156 | 165 | 176 | 164 | 193 | 177 | 198 | 283 | 636 | 283 | - | 174 | 222 | 268 | 70.5
Nc1cccc2c1CN(C1CCC(=O)NC1=O)C2=O (stereo not shown) at 5 µM | 194 | 92.5 | 88.6 | 47.0 | 199 | 401 | 221 | 362 | 210 | 183 | - | 326 | 221 | 98.0 | 72.1
OCCn1cc(-c2cnc3nnn(Cc4ccc5ncccc5c4)c3n2)cn1 at 5 µM | 111 | 153 | 779 | - | 49.1 | 248 | 255 | 168 | 238 | 141 | - | 271 | 86.4 | 208 | 127
CC1(C)CCC(c2ccc(Cl)cc2)=C(CN2CCN(c3ccc(C(=O)NS(=O)(=O)c4ccc(N[C@H](CCN5CCOCC5)CSc5ccccc5)c(S(=O)(=O)C(F)(F)F)c4)cc3)CC2)C1 at 2 µM | 165 | 169 | 348 | 700 | 2530 | 451 | 1220 | 292 | 718 | 636 | - | 667 | 232 | 332 | 2330
C=CCn1c(=O)c2cnc(Nc3ccc(N4CCN(C)CC4)cc3)nc2n1-c1cccc(C(C)(C)O)n1 at 0.1 µM | 110 | 240 | 354 | - | 770 | 555 | 455 | 695 | 347 | 603 | - | 135 | 134 | 208 | 64.8
C[As](C)SC[C@H](NC(=O)CC[C@H](N)C(=O)O)C(=O)NCC(=O)O at 2 µM | 300 | 232 | 133 | 84.8 | 173 | 153 | 993 | 272 | 127 | 126 | - | 76.9 | 161 | 134 | 40.6
CS(=O)(=O)CCNCc1ccc(-c2ccc3ncnc(Nc4ccc(OCc5cccc(F)c5)c(Cl)c4)c3c2)o1 at 4 µM | 70.7 | 178 | 104 | 109 | 94.9 | 157 | 150 | 286 | 172 | 232 | - | 1690 | 270 | 256 | 79.7
COc1ccc2c(c1)CCC1C2CCC2(C)C(NCCCCCCN3C(=O)C=CC3=O)CCC12 (stereo not shown) at 2 µM | 130 | 84.2 | 852 | 249 | 265 | 245 | 261 | 390 | 224 | 277 | 95.8 | 188 | 179 | 501 | 73.9
CN1CCN(c2ccc3nc(-c4c(N)c5c(F)cccc5[nH]c4=O)[nH]c3c2)CC1 at 0.5 µM | 167 | 228 | 365 | 133 | 38.6 | 144 | 835 | 911 | 264 | 542 | - | 292 | 105 | 104 | 39.3

Repeated from the top, 2 entries:

| Partner | MEL-HO | WM3526 | IST-MEL1 | A375 | WM1716 | MeWo | IPC-298 | A2058 | RPMI-7951 | G-361 | 501mel | RVH-421 | LOX IMVI | UACC-62 | UACC-257 |
|---|---|---|---|---|---|---|---|---|---|---|---|---|---|---|---|
| COc1cc([C@@H]2c3cc4c(cc3[C@@H](O[C@@H]3O[C@@H]5CO[C@@H](C)O[C@H]5[C@H](O)[C@H]3O)[C@H]3COC(=O)[C@H]23)OCO4)cc(OC)c1O at 0.1 µM | 117 | 122 | 626 | 227 | 151 | 184 | 1030 | 318 | 197 | 320 | - | 214 | 103 | 183 | 81.6 |
| COC(=O)c1sccc1S(=O)(=O)Nc1ccc(Nc2ccccc2)cc1OC at 5 µM | 52.4 | 78.4 | 382 | 83.1 | 138 | 231 | 182 | 113 | 60.3 | 28.3 | 115 | 58.9 | 173 | 123 | 57.3 |